{"source": "EPA's ToxValDB 9.5", "system": "Rattus norvegicus", "conditions": "chronic; duration: 2 years; oral; gavage; M/F; mortality", "data": [{"smiles": "CCCCCCCC1CCC(=O)O1", "note": "(stereo unspecified) [5-Heptyldihydro-2(3H)-furanone]", "values": [{"measurement": "NOAEL", "result": 112, "unit": "mg/kg-day"}]}]}
